Source: publication PMC5814169
These are yes or no findings as the source states them, for the method shown. Binding seen in cells or lysates may run through a third protein. Some results given as binding are weak or reduced against the parent protein; the word gives no strength.

Sequences of proteins named here, by UniProt entry; tags and fusion partners are left off.
UniProt Q99NH2: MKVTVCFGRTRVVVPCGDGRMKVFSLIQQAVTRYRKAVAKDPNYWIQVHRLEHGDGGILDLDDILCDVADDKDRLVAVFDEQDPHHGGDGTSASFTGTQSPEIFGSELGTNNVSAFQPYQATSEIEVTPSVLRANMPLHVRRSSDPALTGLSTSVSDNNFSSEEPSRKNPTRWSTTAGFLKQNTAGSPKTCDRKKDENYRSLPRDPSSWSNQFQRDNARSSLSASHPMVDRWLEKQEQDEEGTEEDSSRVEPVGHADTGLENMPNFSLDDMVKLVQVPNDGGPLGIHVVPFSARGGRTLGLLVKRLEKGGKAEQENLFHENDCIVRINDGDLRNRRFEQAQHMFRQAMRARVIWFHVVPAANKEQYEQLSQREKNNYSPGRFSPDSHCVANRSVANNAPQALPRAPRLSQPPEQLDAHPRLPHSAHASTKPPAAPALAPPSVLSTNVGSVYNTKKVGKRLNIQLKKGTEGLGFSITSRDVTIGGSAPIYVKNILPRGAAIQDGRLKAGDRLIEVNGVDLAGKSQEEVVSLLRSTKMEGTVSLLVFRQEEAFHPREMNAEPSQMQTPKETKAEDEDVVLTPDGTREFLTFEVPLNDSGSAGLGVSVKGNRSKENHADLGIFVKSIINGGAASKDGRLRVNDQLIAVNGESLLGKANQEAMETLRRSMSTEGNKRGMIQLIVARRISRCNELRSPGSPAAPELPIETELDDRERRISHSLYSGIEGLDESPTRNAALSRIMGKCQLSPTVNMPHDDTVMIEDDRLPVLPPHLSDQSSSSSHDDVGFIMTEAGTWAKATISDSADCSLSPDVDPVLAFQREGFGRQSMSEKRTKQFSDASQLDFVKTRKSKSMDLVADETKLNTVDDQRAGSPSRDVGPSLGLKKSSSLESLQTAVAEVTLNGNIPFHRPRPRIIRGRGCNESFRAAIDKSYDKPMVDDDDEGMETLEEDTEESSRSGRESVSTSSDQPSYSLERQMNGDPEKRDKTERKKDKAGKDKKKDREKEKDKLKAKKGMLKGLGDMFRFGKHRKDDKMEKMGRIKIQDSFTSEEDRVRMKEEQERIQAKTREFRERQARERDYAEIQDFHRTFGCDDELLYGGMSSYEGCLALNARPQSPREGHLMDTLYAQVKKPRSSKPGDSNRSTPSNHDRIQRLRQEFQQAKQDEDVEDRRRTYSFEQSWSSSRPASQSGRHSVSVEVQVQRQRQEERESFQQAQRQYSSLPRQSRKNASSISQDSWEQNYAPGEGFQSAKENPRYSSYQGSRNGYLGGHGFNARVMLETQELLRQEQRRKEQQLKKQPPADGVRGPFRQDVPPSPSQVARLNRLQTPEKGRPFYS

Columns and labels:
[1] = target: T1, SIK K56R, catalytically inactive mutant, transfected in HEK293T cells (human) (UniProt P57059); experiment: co-IP; HEK293T cells transfected with the three Par3 isoforms and SIK K56R; immunoprecipitation with an in-house SIK antibody; blot for Par3; non-related antibody as control
T1 sequence: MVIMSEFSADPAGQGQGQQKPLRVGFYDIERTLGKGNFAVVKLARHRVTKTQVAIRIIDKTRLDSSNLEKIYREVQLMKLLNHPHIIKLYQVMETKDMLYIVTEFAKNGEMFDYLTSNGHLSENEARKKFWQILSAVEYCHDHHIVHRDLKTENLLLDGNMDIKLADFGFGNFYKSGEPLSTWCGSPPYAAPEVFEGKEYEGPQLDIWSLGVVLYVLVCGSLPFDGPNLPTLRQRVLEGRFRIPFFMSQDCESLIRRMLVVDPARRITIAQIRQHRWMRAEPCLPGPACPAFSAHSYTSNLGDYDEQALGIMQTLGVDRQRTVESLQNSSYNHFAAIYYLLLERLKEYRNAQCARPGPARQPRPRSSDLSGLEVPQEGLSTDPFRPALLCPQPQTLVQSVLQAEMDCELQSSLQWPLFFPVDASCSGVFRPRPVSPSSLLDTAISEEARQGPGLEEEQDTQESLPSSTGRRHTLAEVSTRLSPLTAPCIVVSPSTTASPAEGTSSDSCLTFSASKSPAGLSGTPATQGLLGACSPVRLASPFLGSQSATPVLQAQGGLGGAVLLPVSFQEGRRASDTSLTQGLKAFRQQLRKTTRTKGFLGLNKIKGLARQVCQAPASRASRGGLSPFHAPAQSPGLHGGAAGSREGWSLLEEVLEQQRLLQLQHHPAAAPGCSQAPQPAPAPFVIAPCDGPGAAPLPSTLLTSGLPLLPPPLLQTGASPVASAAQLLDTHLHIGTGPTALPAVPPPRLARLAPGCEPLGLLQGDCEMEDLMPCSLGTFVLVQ

[2] = target: salt-inducible kinase 1 (SIK), wild type, transfected in NMuMG cells (human) (UniProt P57059); experiment: co-IP; NMuMG cells transfected with WT or K56R SIK; immunoprecipitation with a SIK-specific antibody; blot for endogenous Par3; cells treated with 5 ng/ml TGFβ or vehicle overnight
[3] = target: T2, SIK K56R, kinase-inactive mutant, transfected in NMuMG cells (human) (UniProt P57059); experiment: as above
T2 sequence: T1 sequence

[4] = target: Par3 180 kD isoform (mouse), transfected in HEK293T cells (mouse) (UniProt Q99NH2); experiment: co-IP; HEK293T cells transfected with the three Par3 isoforms, with or without co-expressed SIK; immunoprecipitation of Par3, Protein-G Dynabeads; blot for SIK; rabbit IgG as control
[5] = target: endogenous Par3 (180 kD isoform) of NMuMG cells (mouse (endogenous in NMuMG)) (UniProt Q99NH2); experiment: co-IP; NMuMG cells transfected with WT or K56R SIK; immunoprecipitation with a Par3-specific antibody (endogenous Par3); blot for SIK; cells treated with 5 ng/ml TGFβ or vehicle overnight

In the case of “Par3 180 kD isoform (mouse), transfected in HEK293T cells (from UniProt Q99NH2 1-1333)”, the binding [1] is reported as “binds”.

For “endogenous Par3 (180 kD isoform) of NMuMG cells (from UniProt Q99NH2 1-1333)”, the binding [2] was “binds” and the binding [3] was “binds”.

In the case of “endogenous SIK of HEK293T cells (from UniProt P57059 1-783) (enzyme)”, the binding [4] is reported as “binds”.

With “salt-inducible kinase 1 (SIK), wild type, transfected in HEK293T cells (from UniProt P57059 1-783) (enzyme)” the binding [4] was “binds”.

With “salt-inducible kinase 1 (SIK), wild type, transfected in NMuMG cells (from UniProt P57059 1-783) (enzyme)” the binding [5] was “binds weakly”.
